Publication doi:10.1101/2021.03.13.435271
Results are given in words; binding and its absence hold for the method and conditions named. Binding can be weak; no strength is given.

By UniProt entry, the sequences of proteins in these tests, tags left out. Where a name states a change or a piece, a line headed by the entry shows the natural chain unless it says otherwise.
UniProt O07549: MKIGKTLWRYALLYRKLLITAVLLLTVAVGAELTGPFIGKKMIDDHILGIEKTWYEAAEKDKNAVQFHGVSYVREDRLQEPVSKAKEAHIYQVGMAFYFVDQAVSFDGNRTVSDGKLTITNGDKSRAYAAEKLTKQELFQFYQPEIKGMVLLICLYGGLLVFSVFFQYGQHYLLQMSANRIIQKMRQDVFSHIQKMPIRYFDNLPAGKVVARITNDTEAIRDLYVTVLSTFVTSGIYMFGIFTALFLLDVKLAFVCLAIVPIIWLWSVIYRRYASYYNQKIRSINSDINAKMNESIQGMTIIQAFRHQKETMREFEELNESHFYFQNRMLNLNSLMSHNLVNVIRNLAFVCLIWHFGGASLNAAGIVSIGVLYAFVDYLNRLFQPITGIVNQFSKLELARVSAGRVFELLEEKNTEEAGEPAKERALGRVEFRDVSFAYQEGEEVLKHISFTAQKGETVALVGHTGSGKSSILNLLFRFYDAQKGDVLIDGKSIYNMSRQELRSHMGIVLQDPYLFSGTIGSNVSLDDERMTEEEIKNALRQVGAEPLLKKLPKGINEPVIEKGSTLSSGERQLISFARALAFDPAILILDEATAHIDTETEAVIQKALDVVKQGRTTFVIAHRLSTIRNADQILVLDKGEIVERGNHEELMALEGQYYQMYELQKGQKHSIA
UniProt O07550: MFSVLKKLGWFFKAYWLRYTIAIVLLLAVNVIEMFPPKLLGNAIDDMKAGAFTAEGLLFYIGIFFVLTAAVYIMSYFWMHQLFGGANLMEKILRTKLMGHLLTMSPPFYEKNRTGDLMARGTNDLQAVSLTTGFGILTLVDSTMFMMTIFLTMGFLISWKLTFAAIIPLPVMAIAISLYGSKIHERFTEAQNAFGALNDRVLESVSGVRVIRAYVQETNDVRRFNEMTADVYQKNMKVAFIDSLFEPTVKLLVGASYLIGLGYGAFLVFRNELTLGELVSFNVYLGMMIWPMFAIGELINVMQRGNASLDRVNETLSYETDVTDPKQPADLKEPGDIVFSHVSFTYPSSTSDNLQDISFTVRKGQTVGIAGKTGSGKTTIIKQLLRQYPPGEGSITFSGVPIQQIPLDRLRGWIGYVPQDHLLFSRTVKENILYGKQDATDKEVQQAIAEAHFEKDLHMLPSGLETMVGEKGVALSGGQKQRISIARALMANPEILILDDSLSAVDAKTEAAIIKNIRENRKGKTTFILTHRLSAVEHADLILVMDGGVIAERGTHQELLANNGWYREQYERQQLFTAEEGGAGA

Molecular target: BmrD of cysteine-less BmrCD bearing E592Q (BmrCD-QQ) (Bacillus subtilis) (UniProt O07549)
Experiment: cryo-EM structure

**Q.** With “BmrC of cysteine-less BmrCD bearing D500Q (BmrCD-QQ) (from UniProt O07550)” as the substance, how does the binding read?
**A.** binds
